These are yes or no findings as the source states them, for the method shown. In cells and extracts the contact can be indirect. Some results given as binding are weak or reduced against the parent protein; the word gives no strength.
Tests used:
[1] = molecular target: EGFP-mDia2 ΔN (33-1171 aa) (UniProt Q9Z207); experiment: co-IP; lysate of HEK 293T cells co-transfected with EGFP-mDia2 (FL or ΔN) and mCherry-importin β; GFP antibody and protein G Sepharose beads, 2 h at 4°C; RIPA buffer (50 mM Tris-HCl, 150 mM NaCl, 10 mM EDTA, 1% Triton X-100, pH 8.0); immunoblot with anti-GFP and anti-importin β
[2] = molecular target: EGFP-fused full-length mDia2 (Diaphanous-related formin-3) (UniProt Q9Z207); experiment: as above

Protein sequences, listed by entry. Tags and fused reporters are not part of them. Lines headed by an entry give the natural chain unless they say otherwise; changes in a name come on top. Residues count along the entry.
UniProt Q9Z207: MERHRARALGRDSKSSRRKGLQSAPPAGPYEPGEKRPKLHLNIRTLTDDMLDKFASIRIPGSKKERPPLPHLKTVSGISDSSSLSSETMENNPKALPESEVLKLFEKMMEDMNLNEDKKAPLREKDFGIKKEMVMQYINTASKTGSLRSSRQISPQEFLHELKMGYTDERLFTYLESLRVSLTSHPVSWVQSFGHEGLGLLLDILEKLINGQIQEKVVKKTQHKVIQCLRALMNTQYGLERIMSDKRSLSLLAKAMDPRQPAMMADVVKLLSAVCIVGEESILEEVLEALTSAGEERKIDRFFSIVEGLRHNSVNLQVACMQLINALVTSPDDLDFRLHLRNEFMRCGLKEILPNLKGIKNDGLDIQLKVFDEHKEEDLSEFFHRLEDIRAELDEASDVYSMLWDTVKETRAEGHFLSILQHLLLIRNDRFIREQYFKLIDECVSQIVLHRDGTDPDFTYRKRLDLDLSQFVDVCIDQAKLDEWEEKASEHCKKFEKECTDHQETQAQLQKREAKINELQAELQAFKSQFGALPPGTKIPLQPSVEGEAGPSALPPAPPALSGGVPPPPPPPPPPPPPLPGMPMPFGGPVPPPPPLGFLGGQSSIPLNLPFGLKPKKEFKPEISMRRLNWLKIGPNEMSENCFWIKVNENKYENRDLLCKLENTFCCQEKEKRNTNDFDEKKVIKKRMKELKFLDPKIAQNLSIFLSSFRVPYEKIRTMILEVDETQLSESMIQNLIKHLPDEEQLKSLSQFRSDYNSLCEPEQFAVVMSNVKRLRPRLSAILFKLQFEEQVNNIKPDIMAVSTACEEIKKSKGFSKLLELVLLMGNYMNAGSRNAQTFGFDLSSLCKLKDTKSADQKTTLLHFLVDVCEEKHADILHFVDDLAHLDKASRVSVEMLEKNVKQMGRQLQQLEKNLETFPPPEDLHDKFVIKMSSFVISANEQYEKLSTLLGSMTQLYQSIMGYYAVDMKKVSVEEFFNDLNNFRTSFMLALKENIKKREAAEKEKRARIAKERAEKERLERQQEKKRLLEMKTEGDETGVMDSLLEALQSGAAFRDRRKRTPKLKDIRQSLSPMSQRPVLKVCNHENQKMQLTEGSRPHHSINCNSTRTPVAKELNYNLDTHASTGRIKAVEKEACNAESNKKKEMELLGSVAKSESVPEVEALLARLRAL
EGFP-mDia2 ΔN (33-1171 aa): residues 33-1171 of Q9Z207
UniProt Q14974: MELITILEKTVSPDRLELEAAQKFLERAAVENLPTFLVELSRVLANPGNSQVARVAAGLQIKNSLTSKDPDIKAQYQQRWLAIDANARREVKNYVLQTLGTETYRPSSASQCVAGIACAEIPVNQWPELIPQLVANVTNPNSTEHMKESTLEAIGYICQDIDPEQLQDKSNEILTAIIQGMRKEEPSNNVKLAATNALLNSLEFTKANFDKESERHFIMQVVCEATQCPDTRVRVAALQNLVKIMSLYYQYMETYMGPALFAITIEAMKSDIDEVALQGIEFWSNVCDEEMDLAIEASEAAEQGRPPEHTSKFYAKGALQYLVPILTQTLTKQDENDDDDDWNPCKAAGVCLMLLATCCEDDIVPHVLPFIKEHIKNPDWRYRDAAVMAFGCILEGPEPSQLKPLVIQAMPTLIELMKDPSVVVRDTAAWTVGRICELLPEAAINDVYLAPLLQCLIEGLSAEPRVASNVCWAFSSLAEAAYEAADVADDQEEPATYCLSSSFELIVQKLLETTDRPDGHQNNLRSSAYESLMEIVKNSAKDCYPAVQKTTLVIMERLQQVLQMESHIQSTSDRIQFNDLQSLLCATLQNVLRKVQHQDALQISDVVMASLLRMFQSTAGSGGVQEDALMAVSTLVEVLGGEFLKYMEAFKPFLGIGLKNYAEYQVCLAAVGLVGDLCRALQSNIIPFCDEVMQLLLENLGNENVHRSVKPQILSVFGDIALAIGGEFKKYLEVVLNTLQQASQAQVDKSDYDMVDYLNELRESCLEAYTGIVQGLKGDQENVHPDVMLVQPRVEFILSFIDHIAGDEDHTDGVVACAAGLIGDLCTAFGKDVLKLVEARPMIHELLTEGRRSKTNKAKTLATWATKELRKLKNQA

Row | binding [1] | binding [2] | Substance
1 | binds | binds | endogenous importin β (from UniProt Q14974 1-876)
2 | binds | binds | mCherry-importin β (from UniProt Q14974 1-876)
